# Measurements from US20210284749A1.
# Sequences of proteins named here, by UniProt entry; tags and fusion partners are left off. A change or cut given only in a name is not applied to a line headed by its entry.
# UniProt Q02223: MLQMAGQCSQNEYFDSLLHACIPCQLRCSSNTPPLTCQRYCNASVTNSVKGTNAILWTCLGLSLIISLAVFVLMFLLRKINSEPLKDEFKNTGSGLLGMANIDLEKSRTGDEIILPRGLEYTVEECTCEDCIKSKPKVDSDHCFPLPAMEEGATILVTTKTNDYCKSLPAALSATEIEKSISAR
# Changes are numbered by the printed parent chain. These are yes or no findings as the source states them, for the method shown. Some results given as binding are weak or reduced against the parent protein; the word gives no strength. For some assays here: Tags and fused reporters may be left off the sequences shown.
# T1: TACI-Fc (R&D system, 174-TC) (human) (UniProt O14836)
# T1 sequence (looked up): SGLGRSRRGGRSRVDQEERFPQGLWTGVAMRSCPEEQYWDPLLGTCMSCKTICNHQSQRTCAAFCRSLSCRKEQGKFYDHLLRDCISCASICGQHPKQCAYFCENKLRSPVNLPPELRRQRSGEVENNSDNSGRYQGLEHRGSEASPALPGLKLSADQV
# T2: BAFF-receptors (R&D system, 1162-BR) (human) (UniProt Q96RJ3)
# T2 sequence (looked up): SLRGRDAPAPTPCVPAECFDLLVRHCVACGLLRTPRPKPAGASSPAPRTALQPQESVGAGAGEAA
# B1: anti-BCMA IgG antibody B58 (antibody, V domains shown)
# VH: EVQLLESGGGLVQPGGSLRLSCAASGFTFSNYDMSWVRQAPGKGLEWVSWIYPSDSSIYYADSVKGRFTISRDNSKNTLYLQMNSLRAEDTAVYYCARGPFANKYRQFDYWGQGTLVTVSS
# VL: QSVLTQPPSASGTPGQRVTISCSGSSSNIGSNSVSWYQQLPGTAPKLLIYADSKRPSGVPDRFSGSKSGTSASLAISGLRSEDEADYYCGSWDYSLSGYVFGGGTKLTVL
# B2: anti-BCMA IgG antibody 5B5 (antibody, V domains shown)
# VH: EVQLLESGGGLVQPGGSLRLSCAASGFTFSGHYWSWVRQAPGKGLEWVSTVSGSGGDTFYADSVKGRFTISRDNSKNTLYLQMNSLRAEDTAVYYCARGHSVMDVWGQGTLVTVSS
# VL: EIVLTQSPGTLSLSPGERATLSCRASQGIDSYVAWYQQKPGQAPRLLIYDASLRATGIPDRFSGSGSGTDFTLTISRLEPEDFAVYYCQQYNSWPITFGQGTKLEIKR
# B3: anti-BCMA IgG antibody 5D5 (antibody, V domains shown)
# VH: EVQLLESGGGLVQPGGSLRLSCAASGFTFSDYGLSWVRQAPGKGLEWVSLIDSSGSSTFYADSVKGRFTISRDNSKNTLYLQMNSLRAEDTAVYYCAKEHGLFDSWGQGTLVTVSS
# VL: B2 VL with R24K, G28D, S31D, Y32D, V33I, A34N, Y91S, N92L, S93R, W94T
# B4: anti-BCMA IgG antibody 5A6 (antibody, V domains shown)
# VH: EVQLLESGGGLVQPGGSLRLSCAASGFTFSNYGVHWVRQAPGKGLEWVSYISYSGGTYYNPSLKSRFTISRDNSKNTLYLQMNSLRAEDTAVYYCARDSDDFGFDYWGQGTLVTVSS
# VL: QSVLTQPPSASGTPGQRVTISCQGDSLRSYYVNWYQQLPGTAPKLLIYDHSKRPTGVPDRFSGSKSGTSASLAISGLRSEDEADYYCQSYDSSTVVFGGGTKLTVLG
# B5: mutant antibody 5D5 LM4 (antibody, V domains shown)
# VH: B3 VH
# VL: B2 VL with R24K, G28D, S31D, Y32A, V33I, A34N, Y91S, N92L, S93R, W94T
# B6: mutant antibody 5A6 LM6 (antibody, V domains shown)
# VH: B4 VH
# VL: B4 VL with D25E, S92A
# Target: T1, TACI-Fc (R&D system, 174-TC) (human)
# Assay: ELISA on 100 ng coated TACI-Fc, single antibody level (concentration not given), anti-human Fab HRP, absorbance 450 nm
row,binding,Binder
1,no binding,B1
2,no binding,B2
3,no binding,B3
4,no binding,B4

# Target: human monomeric BCMA antigen (human) (UniProt Q02223)
# Assay: SPR (Biacore T200)
row,binding,Binder
1,binds,B5
2,binds,B6

# Target: human monomeric BCMA antigen (human) (UniProt Q02223)
# Assay: SPR (Biacore T200), antibody captured on protein A chip
row,binding,Binder
1,binds,B5
2,binds,B6

# Target: recombinant human BCMA (ELISA antigen, construct not specified) (human) (UniProt Q02223)
# Assay: ELISA, 100 ng coated antigen
row,binding,Binder
1,binds,B1
2,binds,B2
3,binds,B3
4,binds,B4

# Target: T2, BAFF-receptors (R&D system, 1162-BR) (human)
# Assay: ELISA, 100 ng coated per well
row,binding,Binder
1,no binding,B1
2,no binding,B2
3,no binding,B3
4,no binding,B4

# Target: T1, TACI-Fc (R&D system, 174-TC) (human)
# Assay: ELISA, 100 ng coated per well
row,binding,Binder
1,no binding,B1
2,no binding,B2
3,no binding,B3
4,no binding,B4

# Target: recombinant human BCMA (ELISA antigen, construct not specified) (human) (UniProt Q02223)
# Assay: ELISA, coated recombinant antigen, IgG titrated
row,binding,Binder
1,binds,B1
2,binds,B2
3,binds,B3
4,binds,B4

# Target: recombinant human BCMA (ELISA antigen, construct not specified) (human) (UniProt Q02223)
# Assay: ELISA on coated recombinant human BCMA, antibody titrated, HRP anti-Fab detection, absorbance 450 nm
row,binding,Binder
1,binds,B1
2,binds,B2
3,binds,B3
4,binds,B4

# Target: recombinant human BCMA (ELISA antigen, construct not specified) (human) (UniProt Q02223)
# Assay: ELISA on recombinant BCMA
row,binding,Binder
1,binds,B5
2,binds,B6

# Target: T2, BAFF-receptors (R&D system, 1162-BR) (human)
# Assay: ELISA on 100 ng coated BAFF-receptor, single antibody level (concentration not given), anti-human Fab HRP, absorbance 450 nm
row,binding,Binder
1,no binding,B1
2,no binding,B2
3,no binding,B3
4,no binding,B4

# Target: recombinant human BCMA (ELISA antigen, construct not specified) (human) (UniProt Q02223)
# Assay: ELISA on 100 ng coated human BCMA, antibody titrated, anti-human Fab HRP, absorbance 450 nm
row,binding,Binder
1,binds,B1
2,binds,B2
3,binds,B3
4,binds,B4
